Measurements taken from article PMC6547012, “TCP Transcription Factors Associate with PHYTOCHROME INTERACTING FACTOR 4 and CRYPTOCHROME 1 to Regulate Thermomorphogenesis in Arabidopsis thaliana” (iScience, 2019).
No constants are given. Whether binding was seen depends on the method and setting. For some assays here: Binding calls can cover weak binding; strength is not graded here. Tags and fused reporters may be left off the sequences shown.

Key:
[1] = molecular target: CRY1 PHR domain (yeast two-hybrid fusion) (Arabidopsis thaliana); assay: two-hybrid; yeast two-hybrid of TCP17 with the PHR or CCE domain of CRY1
[2] = molecular target: CRY1 CCE domain (yeast two-hybrid fusion) (Arabidopsis thaliana); assay: as above

binding [1]: binds
binding [2]: no binding
B1: TCP17 (yeast two-hybrid fusion) (protein, UniProt Q9LEZ9 1-242)
chain: MGIKKEDQKSSLSLLTQRWNNPRIVRVSRAFGGKDRHSKVCTVRGLRDRRIRLSVMTAIQVYDLQERLGLSQPSKVIDWLLEVAKNDVDLLPPLQFPPGFHQLNPNLTGLGESFPGVFDLGRTQREALDLEKRKWVNLDHVFDHIDHHNHFSNSIQSNKLYFPTITSSSSSYHYNLGHLQQSLLDQSGNVTVAFSNNYNNNNLNPPAAETMSSLFPTRYPSFLGGGQLQLFSSTSSQPDHIE
